The source of these data is publication PMC8409151, “GT198 Is a Target of Oncology Drugs and Anticancer Herbs” (Frontiers in Oral Health, 2021).

Chains of the proteins cited; added tags and fusions are not shown. Residues count along the entry.
UniProt P02769, 25-607: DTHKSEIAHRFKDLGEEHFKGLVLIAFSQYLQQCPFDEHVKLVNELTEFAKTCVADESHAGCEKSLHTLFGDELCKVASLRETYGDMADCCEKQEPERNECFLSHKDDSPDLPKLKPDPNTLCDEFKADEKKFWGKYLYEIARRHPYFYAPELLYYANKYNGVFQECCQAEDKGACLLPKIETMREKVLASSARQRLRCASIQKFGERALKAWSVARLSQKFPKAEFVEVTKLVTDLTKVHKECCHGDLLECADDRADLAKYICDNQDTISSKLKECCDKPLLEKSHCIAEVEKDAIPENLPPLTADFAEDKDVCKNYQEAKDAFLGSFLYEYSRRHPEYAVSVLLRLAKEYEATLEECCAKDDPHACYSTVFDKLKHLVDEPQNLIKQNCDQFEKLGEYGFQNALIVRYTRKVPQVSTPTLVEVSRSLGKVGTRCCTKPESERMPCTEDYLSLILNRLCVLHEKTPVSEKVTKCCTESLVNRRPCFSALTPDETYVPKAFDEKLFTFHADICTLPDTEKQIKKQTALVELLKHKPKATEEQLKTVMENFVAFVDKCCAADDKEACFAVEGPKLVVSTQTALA

One data set deals with BSA (UniProt P02769). The data set can be described thus: plate binding assay (immobilized protein, streptavidin-HRP chemiluminescence). The conditions noted are these: BSA alone, negative control; biotin before the first printed base (5'); 20 mM Tris-HCl pH 7.5, 50 mM NaCl, 75 mM KCl, 0.5 mM MgCl2, 0.05% Triton X-100, 10% glycerol, 1 mM DTT; 4 C, 4 h to overnight; 400 ng/well GT198 plus 5 ug BSA; commercial protein; label: biotin; single-stranded DNA.

Data set [1] has as its target T1, GT198 (Hop2), C-terminally truncated del181-217 (human) (UniProt Q9P2W1).
T1 sequence (looked up): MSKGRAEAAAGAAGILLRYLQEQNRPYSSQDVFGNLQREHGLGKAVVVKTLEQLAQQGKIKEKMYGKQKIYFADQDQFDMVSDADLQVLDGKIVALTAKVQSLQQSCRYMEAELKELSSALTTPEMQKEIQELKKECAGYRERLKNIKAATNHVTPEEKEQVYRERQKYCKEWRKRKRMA
Described as above. As to conditions: 100 nM doxorubicin (competitive, curve shifted right, Km increased); biotin before the first printed base (5'); 20 mM Tris-HCl pH 7.5, 50 mM NaCl, 75 mM KCl, 0.5 mM MgCl2, 0.05% Triton X-100, 10% glycerol, 1 mM DTT; 4 C, 4 h to overnight; 400 ng/well GT198 plus 5 ug BSA; recombinant protein; residues 1-180; protein details: N-terminal His; label: biotin; single-stranded ….

For some assays here: Negatives hold for the conditions tested. For some assays here: At least one verdict rests on a figure or table, not on a statement of the authors. For some assays here: Construct, isoform or probe ends are uncertain for at least one entry. For some assays here: Weaker means in comparison with the reference protein, sequence or condition of that experiment. For some assays here: Where a protein sequence is shown, tags need not be part of it.

On to “CCTGGGGTTGCTGAGGTCCTGGCAG [biotin 25-mer ssDNA]”, for which the binding result is “no binding” with BSA and “binds more weakly” in data set [1].
